No constants are given. Whether binding was seen depends on the method and setting. Binding seen in cells or lysates may run through a third protein. Some entries that bind do so weakly or less than the wild type. Sequences can lack the tags named with a protein.
Target: T1, Flag-PDK1-P551A (UniProt O15530)
T1 sequence: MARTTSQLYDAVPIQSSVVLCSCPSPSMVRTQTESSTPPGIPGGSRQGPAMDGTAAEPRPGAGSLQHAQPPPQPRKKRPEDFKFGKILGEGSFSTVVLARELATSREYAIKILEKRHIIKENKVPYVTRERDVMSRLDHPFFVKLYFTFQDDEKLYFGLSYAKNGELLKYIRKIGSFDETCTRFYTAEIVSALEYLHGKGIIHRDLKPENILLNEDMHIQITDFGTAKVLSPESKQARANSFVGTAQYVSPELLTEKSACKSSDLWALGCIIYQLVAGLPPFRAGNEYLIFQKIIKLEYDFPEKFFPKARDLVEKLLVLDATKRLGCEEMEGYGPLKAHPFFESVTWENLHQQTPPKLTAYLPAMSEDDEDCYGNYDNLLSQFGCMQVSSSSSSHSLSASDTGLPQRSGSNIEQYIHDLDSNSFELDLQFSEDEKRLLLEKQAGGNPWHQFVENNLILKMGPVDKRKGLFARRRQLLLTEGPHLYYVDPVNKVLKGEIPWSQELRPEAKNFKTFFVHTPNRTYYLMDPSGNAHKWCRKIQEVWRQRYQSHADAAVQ
Assay: co-IP; immunoprecipitation (anti-Flag or anti-HA agarose, 2-4 h at 4 °C) from whole cell lysates of co-transfected 293T cells; EBC lysis buffer, four washes with NETN buffer, immunoblot; in some panels with HA-S6K1-R3A or knock-down of 14-3-3γ

Protein sequences, listed by entry. Tags and fused reporters are not part of them.
UniProt P31749: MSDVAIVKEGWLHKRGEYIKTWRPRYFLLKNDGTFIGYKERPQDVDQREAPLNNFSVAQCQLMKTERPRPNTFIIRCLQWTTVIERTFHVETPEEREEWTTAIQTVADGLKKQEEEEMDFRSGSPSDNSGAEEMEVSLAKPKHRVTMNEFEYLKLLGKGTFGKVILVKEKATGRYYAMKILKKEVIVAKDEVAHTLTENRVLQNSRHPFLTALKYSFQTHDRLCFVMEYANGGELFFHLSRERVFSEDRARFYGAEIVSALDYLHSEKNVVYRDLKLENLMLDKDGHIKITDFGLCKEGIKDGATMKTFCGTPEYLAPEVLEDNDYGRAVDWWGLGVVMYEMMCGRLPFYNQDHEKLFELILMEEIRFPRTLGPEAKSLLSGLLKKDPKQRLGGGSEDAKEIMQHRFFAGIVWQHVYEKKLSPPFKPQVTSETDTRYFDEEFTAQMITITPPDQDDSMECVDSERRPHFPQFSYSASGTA

binding: binds
Substance: HA-AKT1 (from UniProt P31749 1-480) (enzyme)

From paper PMC8941131
